Source: the supplement of paper PMC6078165

Tested on: Hs578T
Experiment: relative JC-1 red fluorescence (viability) vs pre-drug, coculture with fibroblast (fraction); higher = more viable cancer cells
Procedure: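 JC-1 labelled TNBC cells cocultured 1:1 (1,500 cells each) with CellTrace Violet stained primary or stromal fibroblasts in 384-well plates in FluoroBrite medium, treated with one of 42 anticancer drugs at 0.1, 1, 10 or 100 uM. JC-1 red fluorescence (mitochondrial integrity in cancer cells only) was read by plate reader every 8 h for 72 h. Values are normalised to each well's pre-drug value. The stock of one drug was tenfold lower, so its dose labels may be too high.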

O=c1[nH]cc(F)c(=O)[nH]1 [Fluorouracil]
relative JC-1 red fluorescence
Conditions	8 h	16 h	24 h	32 h	40 h	48 h	56 h	64 h	72 h
0.1 µM	0.889	0.772	0.7178	0.68	0.629	0.594	0.57	0.533	0.528
1 µM	0.903	0.761	0.724	0.694	0.646	0.606	0.59	0.552	0.5377
10 µM	0.915	0.791	0.748	0.707	0.65	0.614	0.596	0.5583	0.555
100 µM	0.869	0.762	0.725	0.689	0.642	0.606	0.598	0.5688	0.5646

relative JC-1 red fluorescence
Conditions	8 h	16 h	24 h	32 h	40 h	48 h	56 h	64 h	72 h
0.1 µM, coculture fibroblast: C12385	0.8496	0.73318	0.655	0.562	0.503	0.473	0.443	0.443	0.442
0.1 µM, coculture fibroblast: H6013	0.887	0.782	0.739	0.721	0.677	0.667	0.642	0.641	0.615
0.1 µM, coculture fibroblast: H6019	0.798	0.666	0.677	0.595	0.564	0.547	0.526	0.513	0.49
0.1 µM, coculture fibroblast: H6076	0.92399	0.8105	0.763	0.736	0.692	0.686	0.66	0.653	0.652
0.1 µM, coculture fibroblast: H6231	0.904	0.829	0.729	0.6937	0.633	0.604	0.558	0.526	0.511
0.1 µM, coculture fibroblast: HADF	0.9107	0.8346	0.732	0.663	0.606	0.567	0.535	0.521	0.496
0.1 µM, coculture fibroblast: HCFa	0.901	0.786	0.746	0.715	0.66	0.644	0.6216	0.606	0.579
0.1 µM, coculture fibroblast: HCPF	0.899	0.807	0.765	0.7476	0.6954	0.67539	0.6541	0.6202	0.5966
0.1 µM, coculture fibroblast: HHSteC	0.9147	0.783	0.74	0.703	0.652	0.622	0.597	0.573	0.535
0.1 µM, coculture fibroblast: HMF	0.8792	0.763	0.729	0.709	0.655	0.638	0.601	0.584	0.571
0.1 µM, coculture fibroblast: HPFa	0.92743	0.8586	0.7395	0.6759	0.625	0.586	0.54	0.516	0.466
0.1 µM, coculture fibroblast: HUF	0.89	0.796	0.715	0.595	0.529	0.484	0.458	0.443	0.432
0.1 µM, coculture fibroblast: Hs27A	0.874	0.826	0.777	0.732	0.689	0.682	0.659	0.654	0.615
0.1 µM, coculture fibroblast: Hs343T	0.9048	0.777	0.7075	0.691	0.629	0.606	0.573	0.56	0.562
0.1 µM, coculture fibroblast: WS1	0.823	0.676	0.592	0.5	0.427	0.398	0.364	0.357	0.351
1 µM, coculture fibroblast: C12385	0.814	0.6681	0.649	0.553	0.5	0.477	0.453	0.453	0.458
1 µM, coculture fibroblast: H6013	0.906	0.799	0.74	0.689	0.633	0.618	0.592	0.582	0.553
1 µM, coculture fibroblast: H6019	0.774	0.666	0.634	0.544	0.502	0.472	0.445	0.429	0.406
1 µM, coculture fibroblast: H6076	0.9033	0.809	0.784	0.772	0.736	0.729	0.717	0.706	0.706
1 µM, coculture fibroblast: H6231	0.907	0.837	0.7297	0.6744	0.5994	0.5655	0.5233	0.491	0.47
1 µM, coculture fibroblast: HADF	0.886	0.793	0.785	0.749	0.727	0.703	0.675	0.67	0.642
1 µM, coculture fibroblast: HCFa	0.839	0.789	0.748	0.697	0.647	0.633	0.597	0.584	0.543
1 µM, coculture fibroblast: HCPF	0.944	0.846	0.769	0.736	0.682	0.655	0.636	0.595	0.569
1 µM, coculture fibroblast: HHSteC	0.869	0.803	0.742	0.695	0.639	0.604	0.573	0.544	0.505
1 µM, coculture fibroblast: HMF	0.893	0.763	0.724	0.7	0.638	0.6062	0.573	0.549	0.542
1 µM, coculture fibroblast: HPFa	0.924	0.816	0.728	0.662	0.609	0.566	0.522	0.492	0.444
1 µM, coculture fibroblast: HUF	0.8646	0.745	0.667	0.56	0.501	0.46	0.422	0.4	0.397
1 µM, coculture fibroblast: Hs27A	0.8656	0.776	0.715	0.662	0.609	0.594	0.556	0.539	0.496
1 µM, coculture fibroblast: Hs343T	0.915	0.7846	0.726	0.704	0.634	0.598	0.57	0.5447	0.5384
1 µM, coculture fibroblast: WS1	0.796	0.6723	0.609	0.50579	0.447	0.423	0.394	0.3927	0.3966
10 µM, coculture fibroblast: C12385	0.826	0.715	0.655	0.561	0.495	0.461	0.423	0.403	0.391
10 µM, coculture fibroblast: H6013	0.903	0.824	0.773	0.743	0.704	0.696	0.669	0.66	0.637
10 µM, coculture fibroblast: H6019	0.782	0.655	0.669	0.576	0.55	0.531	0.511	0.508	0.5
10 µM, coculture fibroblast: H6076	0.877	0.754	0.73	0.73	0.682	0.691	0.676	0.678	0.68
10 µM, coculture fibroblast: H6231	0.8827	0.7899	0.687	0.667	0.602	0.578	0.528	0.503	0.487
10 µM, coculture fibroblast: HADF	0.906	0.862	0.799	0.76	0.713	0.681	0.632	0.613	0.573
10 µM, coculture fibroblast: HCFa	0.891	0.815	0.691	0.652	0.58	0.548	0.509	0.487	0.455
10 µM, coculture fibroblast: HCPF	0.939	0.844	0.778	0.736	0.673	0.641	0.603	0.567	0.531
10 µM, coculture fibroblast: HHSteC	0.922	0.805	0.729	0.674	0.598	0.556	0.519	0.493	0.456
10 µM, coculture fibroblast: HMF	0.876	0.769	0.7059	0.688	0.625	0.601	0.563	0.548	0.533
10 µM, coculture fibroblast: HPFa	0.9352	0.895	0.788	0.715	0.6758	0.6373	0.5997	0.5792	0.5366
10 µM, coculture fibroblast: HUF	0.865	0.7263	0.698	0.583	0.514	0.479	0.446	0.4329	0.419
10 µM, coculture fibroblast: Hs27A	0.888	0.828	0.746	0.702	0.641	0.62	0.585	0.575	0.538
10 µM, coculture fibroblast: Hs343T	0.9162	0.791	0.719	0.678	0.609	0.573	0.525	0.496	0.475
10 µM, coculture fibroblast: WS1	0.838	0.719	0.675	0.574	0.521	0.501	0.471	0.467	0.4578
100 µM, coculture fibroblast: C12385	0.798	0.701	0.677	0.585	0.527	0.504	0.479	0.462	0.448
100 µM, coculture fibroblast: H6013	0.916	0.845	0.801	0.774	0.725	0.702	0.668	0.641	0.6
100 µM, coculture fibroblast: H6019	0.7421	0.668	0.664	0.5666	0.53105	0.505	0.484	0.469	0.451
100 µM, coculture fibroblast: H6076	0.939	0.891	0.842	0.799	0.735	0.716	0.685	0.658	0.648
100 µM, coculture fibroblast: H6231	0.882	0.773	0.7326	0.6934	0.63	0.607	0.567	0.544	0.528
100 µM, coculture fibroblast: HADF	0.917	0.862	0.808	0.748	0.697	0.652	0.606	0.586	0.547
100 µM, coculture fibroblast: HCFa	0.845	0.78	0.728	0.676	0.614	0.594	0.556	0.54	0.498
100 µM, coculture fibroblast: HCPF	0.925	0.811	0.7741	0.735	0.668	0.646	0.626	0.582	0.567
100 µM, coculture fibroblast: HHSteC	0.8465	0.752	0.68	0.631	0.579	0.544	0.523	0.493	0.46
100 µM, coculture fibroblast: HMF	0.854	0.7824	0.75	0.7309	0.675	0.6449	0.624	0.604	0.5894
100 µM, coculture fibroblast: HPFa	0.9355	0.8372	0.804	0.764	0.739	0.718	0.682	0.663	0.625
100 µM, coculture fibroblast: HUF	0.859	0.761	0.727	0.623	0.562	0.524	0.487	0.474	0.466
100 µM, coculture fibroblast: Hs27A	0.8957	0.855	0.81	0.777	0.721	0.698	0.663	0.65	0.59
100 µM, coculture fibroblast: Hs343T	0.9019	0.823	0.776	0.754	0.686	0.651	0.625	0.598	0.574
100 µM, coculture fibroblast: WS1	0.758	0.706	0.676	0.583	0.53	0.518	0.492	0.485	0.479

The reference is the same well before dosing, and untreated signal decays as well.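 Fibroblast labels denote human fibroblasts, mainly primary ones from uterus (C12385, HUF), lung (H6013), bone (Hs27A), adrenal (HADF) and skin (WS1), plus mammary HMF and breast cancer-associated Hs343T. Cancer cells are basal-like or mesenchymal-like triple-negative breast cancer lines. A hit is a response shift exceeding 3x replicate standard deviation. The tissue of the other fibroblasts is not given here.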
